Measured values published in patent US20110230478A1 (Bayer ScienceCrop AG, priority 2008, published 2011).
Some entries share one result that the patent states for a list of compounds.

Key:
Alternaria solani = assay: Alternaria test (tomato)/protective; format: in vivo; conditions: tomato plants, protective, active compound concentration 500 ppm, evaluation 7 days after inoculation
Venturia inaequalis = assay: Venturia test (apple)/protective; format: in vivo; conditions: apple plants, protective, active compound concentration 100 ppm, evaluation 10 days after inoculation
Pyrenophora teres = Pyrenophora teres test (barley)/protective; format: in vivo; conditions: barley plants, protective, active compound concentration 500 ppm, evaluation 7-9 days after inoculation
[1] = system: Fusarium nivale (var. majus); assay: Fusarium nivale (var. majus) test (wheat)/protective; format: in vivo; conditions: wheat plants, protective, active compound concentration 1000 ppm, evaluation 5 days after inoculation
Pyricularia oryza = conditions: in vivo
Rhizoctonia solani = assay: Rhizoctonia test (rice)/protective; format: in vivo; conditions: rice plants, protective, active compound concentration 250 ppm, evaluation 4 days after inoculation

Structure (SMILES) | efficacy (Alternaria solani) [%] | efficacy (Venturia inaequalis) [%] | efficacy (Pyrenophora teres) [%] | efficacy [1] [%] | efficacy (Pyricularia oryza) [%] | efficacy (Rhizoctonia solani) [%]
CNC(=O)Oc1cccc(Nc2ncc(Br)c(NC(C)COC)n2)c1 (racemic) [Example 130] | ≥ 70 | ≥ 70 | ≥ 70 | ≥ 70 |  | 
Cc1cccc(Nc2ncc(Cl)c(NC(C)C)n2)c1 [Example 229] |  |  | ≥ 70 |  | ≥ 80 | 
CC(C)Nc1nc(Nc2ccc(C(=O)N(C)C)cc2)ncc1Cl [Example 234] | ≥ 70 |  | ≥ 70 | ≥ 70 |  | 
COCC(C)Nc1nc(Nc2ccc(OC)c(OC)c2)ncc1Br (stereo not drawn) [Example 74] | ≥ 70 |  | ≥ 70 | ≥ 70 |  | 
CC(C)Nc1nc(Nc2ccc(CC(=O)C(C)(C)C)cc2)ncc1Cl [Example 199] | ≥ 70 | ≥ 70 | ≥ 70 |  |  | 
CC(C)Nc1nc(Nc2cccc(CS(=O)(=O)N(C)C)c2)ncc1Cl [Example 250] | ≥ 70 | ≥ 70 | ≥ 70 |  | ≥ 80 | ≥ 80
CNC(=O)Oc1cccc(Nc2ncc(Cl)c(NC(C)C)n2)c1 [Example 203] | ≥ 70 | ≥ 70 | ≥ 70 |  |  | 
C=CCNC(=O)c1ccc(Nc2ncc(Cl)c(NC(C)COC)n2)cc1 (racemic) [Example 136] | ≥ 70 | ≥ 70 | ≥ 70 |  |  | 
CNC(=O)Oc1cccc(Nc2ncc(Cl)c(NC(C)COC)n2)c1 (racemic) [Example 144] | ≥ 70 | ≥ 70 | ≥ 70 | ≥ 70 |  | ≥ 80
COCC(C)Nc1nc(Nc2ccc(C(C)=O)cc2)ncc1Cl (stereo not drawn) [Example 152] |  |  | ≥ 70 |  |  | 
CC(C)Nc1nc(Nc2ccc(C(=O)N(C)C)cc2)ncc1Br [Example 245] | ≥ 70 | ≥ 70 | ≥ 70 | ≥ 70 | ≥ 80 | ≥ 80
COCC(C)Nc1nc(Nc2cccc(OC)c2)ncc1Br (stereo not drawn) [Example 109] | ≥ 70 | ≥ 70 | ≥ 70 |  |  | 
CC(C)Nc1nc(Nc2cccc(C=O)c2)ncc1Cl [Example 252] |  |  | ≥ 70 |  | ≥ 80 | 
CSc1cccc(Nc2ncc(Cl)c(NC(C)C)n2)c1 [Example 173] |  |  |  | ≥ 70 |  | 
CC(C)Nc1nc(Nc2cccc(O)c2)ncc1Cl [Example 214] | ≥ 70 | ≥ 70 | ≥ 70 |  |  | 
CCc1cccc(Nc2ncc(Cl)c(NC(C)C)n2)c1 [Example 230] |  |  | ≥ 70 |  |  | 
